Experimental data published in the supplement of paper PMC12067093, “Discovery and optimisation of a covalent ligand for TRIM25 and its application to targeted protein ubiquitination” (Chemical Science, 2025).
Some of the results follow.

The chains behind the UniProt entries cited, without tags or fusion partners. Where a name states a change or a piece, a line headed by the entry shows the natural chain unless it says otherwise.
UniProt O14727: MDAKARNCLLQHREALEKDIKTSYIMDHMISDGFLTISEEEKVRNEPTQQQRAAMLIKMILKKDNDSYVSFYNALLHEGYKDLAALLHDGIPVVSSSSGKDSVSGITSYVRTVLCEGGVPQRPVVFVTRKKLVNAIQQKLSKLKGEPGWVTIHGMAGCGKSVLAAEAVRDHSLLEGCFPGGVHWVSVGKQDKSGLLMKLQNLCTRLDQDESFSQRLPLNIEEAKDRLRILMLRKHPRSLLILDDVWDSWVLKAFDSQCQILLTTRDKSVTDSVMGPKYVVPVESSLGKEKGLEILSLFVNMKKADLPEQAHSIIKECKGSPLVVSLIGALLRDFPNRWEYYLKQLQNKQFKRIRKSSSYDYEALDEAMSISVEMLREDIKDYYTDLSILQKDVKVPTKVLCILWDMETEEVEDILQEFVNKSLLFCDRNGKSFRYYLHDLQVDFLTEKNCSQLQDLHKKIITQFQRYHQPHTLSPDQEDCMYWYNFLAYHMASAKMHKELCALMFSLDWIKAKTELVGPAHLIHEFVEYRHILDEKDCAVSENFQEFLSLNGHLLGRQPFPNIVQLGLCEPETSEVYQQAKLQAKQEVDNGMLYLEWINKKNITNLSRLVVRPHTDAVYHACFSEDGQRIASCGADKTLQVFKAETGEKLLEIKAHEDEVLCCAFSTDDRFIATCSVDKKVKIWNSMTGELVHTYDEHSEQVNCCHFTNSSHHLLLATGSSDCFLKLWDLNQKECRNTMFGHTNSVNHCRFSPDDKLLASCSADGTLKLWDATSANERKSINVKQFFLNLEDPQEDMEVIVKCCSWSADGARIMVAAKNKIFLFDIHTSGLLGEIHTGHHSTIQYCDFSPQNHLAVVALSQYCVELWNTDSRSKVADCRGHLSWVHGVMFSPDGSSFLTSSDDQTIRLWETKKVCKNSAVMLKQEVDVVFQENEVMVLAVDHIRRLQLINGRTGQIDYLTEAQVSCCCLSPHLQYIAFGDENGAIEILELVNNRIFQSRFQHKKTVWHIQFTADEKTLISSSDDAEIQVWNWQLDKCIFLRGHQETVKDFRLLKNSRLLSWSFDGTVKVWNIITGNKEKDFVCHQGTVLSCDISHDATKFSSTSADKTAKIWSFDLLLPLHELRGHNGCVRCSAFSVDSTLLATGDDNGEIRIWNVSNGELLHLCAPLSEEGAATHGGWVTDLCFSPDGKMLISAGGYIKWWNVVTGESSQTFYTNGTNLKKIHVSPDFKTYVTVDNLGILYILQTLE
UniProt P27695, whole entry, looked up: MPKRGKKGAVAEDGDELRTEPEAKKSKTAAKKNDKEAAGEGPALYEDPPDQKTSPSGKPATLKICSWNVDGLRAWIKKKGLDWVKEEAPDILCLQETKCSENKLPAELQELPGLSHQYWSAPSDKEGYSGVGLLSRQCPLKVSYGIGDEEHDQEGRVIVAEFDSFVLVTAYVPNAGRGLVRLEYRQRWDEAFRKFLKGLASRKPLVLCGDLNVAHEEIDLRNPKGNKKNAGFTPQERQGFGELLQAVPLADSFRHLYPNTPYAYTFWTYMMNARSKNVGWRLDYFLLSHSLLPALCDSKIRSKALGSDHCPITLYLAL
UniProt Q8NB46: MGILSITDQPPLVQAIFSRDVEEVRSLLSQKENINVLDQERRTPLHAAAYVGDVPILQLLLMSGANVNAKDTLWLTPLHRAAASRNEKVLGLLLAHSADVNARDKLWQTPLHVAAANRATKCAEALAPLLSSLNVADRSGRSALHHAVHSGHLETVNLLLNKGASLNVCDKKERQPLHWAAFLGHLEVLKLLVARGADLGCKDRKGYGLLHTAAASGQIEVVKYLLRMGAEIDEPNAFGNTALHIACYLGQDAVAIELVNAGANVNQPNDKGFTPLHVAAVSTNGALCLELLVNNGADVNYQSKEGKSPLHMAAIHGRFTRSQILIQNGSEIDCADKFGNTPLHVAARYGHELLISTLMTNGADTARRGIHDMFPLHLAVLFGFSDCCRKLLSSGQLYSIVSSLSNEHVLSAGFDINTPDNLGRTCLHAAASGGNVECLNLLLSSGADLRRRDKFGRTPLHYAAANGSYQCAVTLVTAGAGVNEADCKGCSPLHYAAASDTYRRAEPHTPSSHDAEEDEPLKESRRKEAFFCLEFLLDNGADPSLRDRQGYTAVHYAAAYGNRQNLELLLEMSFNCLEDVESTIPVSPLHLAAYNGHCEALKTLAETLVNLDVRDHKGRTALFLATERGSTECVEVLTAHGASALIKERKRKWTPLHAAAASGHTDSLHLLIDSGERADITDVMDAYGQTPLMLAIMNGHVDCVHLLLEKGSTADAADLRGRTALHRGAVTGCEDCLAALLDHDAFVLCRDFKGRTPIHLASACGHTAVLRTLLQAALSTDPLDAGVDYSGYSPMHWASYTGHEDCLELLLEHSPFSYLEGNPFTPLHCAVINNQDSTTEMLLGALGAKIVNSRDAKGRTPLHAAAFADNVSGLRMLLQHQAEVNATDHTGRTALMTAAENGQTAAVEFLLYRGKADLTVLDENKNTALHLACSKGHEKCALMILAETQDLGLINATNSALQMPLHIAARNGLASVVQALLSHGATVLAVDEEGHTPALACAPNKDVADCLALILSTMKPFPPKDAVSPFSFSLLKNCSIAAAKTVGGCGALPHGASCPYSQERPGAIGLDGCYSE
UniProt Q4KMQ2: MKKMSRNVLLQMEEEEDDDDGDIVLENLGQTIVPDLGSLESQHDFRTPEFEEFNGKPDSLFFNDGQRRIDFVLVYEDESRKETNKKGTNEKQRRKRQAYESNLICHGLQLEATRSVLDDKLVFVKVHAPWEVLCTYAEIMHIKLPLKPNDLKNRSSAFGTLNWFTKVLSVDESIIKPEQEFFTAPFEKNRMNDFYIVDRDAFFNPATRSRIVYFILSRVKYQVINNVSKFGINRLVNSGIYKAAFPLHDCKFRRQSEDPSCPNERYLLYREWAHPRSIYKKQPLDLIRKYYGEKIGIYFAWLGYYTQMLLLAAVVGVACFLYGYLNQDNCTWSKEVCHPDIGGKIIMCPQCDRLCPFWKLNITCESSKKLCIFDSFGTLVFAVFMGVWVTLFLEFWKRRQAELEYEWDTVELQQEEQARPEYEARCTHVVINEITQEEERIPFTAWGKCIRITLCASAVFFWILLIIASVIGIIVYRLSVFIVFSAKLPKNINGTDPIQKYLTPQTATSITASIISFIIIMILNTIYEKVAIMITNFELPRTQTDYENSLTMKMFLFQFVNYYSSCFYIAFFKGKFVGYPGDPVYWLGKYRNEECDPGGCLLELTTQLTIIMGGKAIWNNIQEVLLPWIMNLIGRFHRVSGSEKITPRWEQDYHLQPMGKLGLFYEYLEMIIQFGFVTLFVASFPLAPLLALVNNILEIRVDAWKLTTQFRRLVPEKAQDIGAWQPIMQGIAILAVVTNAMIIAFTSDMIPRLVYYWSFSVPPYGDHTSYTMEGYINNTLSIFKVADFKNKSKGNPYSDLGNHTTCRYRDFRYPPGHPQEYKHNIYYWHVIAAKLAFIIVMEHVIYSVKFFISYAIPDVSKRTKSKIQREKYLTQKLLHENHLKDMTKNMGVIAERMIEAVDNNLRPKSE
UniProt O75179: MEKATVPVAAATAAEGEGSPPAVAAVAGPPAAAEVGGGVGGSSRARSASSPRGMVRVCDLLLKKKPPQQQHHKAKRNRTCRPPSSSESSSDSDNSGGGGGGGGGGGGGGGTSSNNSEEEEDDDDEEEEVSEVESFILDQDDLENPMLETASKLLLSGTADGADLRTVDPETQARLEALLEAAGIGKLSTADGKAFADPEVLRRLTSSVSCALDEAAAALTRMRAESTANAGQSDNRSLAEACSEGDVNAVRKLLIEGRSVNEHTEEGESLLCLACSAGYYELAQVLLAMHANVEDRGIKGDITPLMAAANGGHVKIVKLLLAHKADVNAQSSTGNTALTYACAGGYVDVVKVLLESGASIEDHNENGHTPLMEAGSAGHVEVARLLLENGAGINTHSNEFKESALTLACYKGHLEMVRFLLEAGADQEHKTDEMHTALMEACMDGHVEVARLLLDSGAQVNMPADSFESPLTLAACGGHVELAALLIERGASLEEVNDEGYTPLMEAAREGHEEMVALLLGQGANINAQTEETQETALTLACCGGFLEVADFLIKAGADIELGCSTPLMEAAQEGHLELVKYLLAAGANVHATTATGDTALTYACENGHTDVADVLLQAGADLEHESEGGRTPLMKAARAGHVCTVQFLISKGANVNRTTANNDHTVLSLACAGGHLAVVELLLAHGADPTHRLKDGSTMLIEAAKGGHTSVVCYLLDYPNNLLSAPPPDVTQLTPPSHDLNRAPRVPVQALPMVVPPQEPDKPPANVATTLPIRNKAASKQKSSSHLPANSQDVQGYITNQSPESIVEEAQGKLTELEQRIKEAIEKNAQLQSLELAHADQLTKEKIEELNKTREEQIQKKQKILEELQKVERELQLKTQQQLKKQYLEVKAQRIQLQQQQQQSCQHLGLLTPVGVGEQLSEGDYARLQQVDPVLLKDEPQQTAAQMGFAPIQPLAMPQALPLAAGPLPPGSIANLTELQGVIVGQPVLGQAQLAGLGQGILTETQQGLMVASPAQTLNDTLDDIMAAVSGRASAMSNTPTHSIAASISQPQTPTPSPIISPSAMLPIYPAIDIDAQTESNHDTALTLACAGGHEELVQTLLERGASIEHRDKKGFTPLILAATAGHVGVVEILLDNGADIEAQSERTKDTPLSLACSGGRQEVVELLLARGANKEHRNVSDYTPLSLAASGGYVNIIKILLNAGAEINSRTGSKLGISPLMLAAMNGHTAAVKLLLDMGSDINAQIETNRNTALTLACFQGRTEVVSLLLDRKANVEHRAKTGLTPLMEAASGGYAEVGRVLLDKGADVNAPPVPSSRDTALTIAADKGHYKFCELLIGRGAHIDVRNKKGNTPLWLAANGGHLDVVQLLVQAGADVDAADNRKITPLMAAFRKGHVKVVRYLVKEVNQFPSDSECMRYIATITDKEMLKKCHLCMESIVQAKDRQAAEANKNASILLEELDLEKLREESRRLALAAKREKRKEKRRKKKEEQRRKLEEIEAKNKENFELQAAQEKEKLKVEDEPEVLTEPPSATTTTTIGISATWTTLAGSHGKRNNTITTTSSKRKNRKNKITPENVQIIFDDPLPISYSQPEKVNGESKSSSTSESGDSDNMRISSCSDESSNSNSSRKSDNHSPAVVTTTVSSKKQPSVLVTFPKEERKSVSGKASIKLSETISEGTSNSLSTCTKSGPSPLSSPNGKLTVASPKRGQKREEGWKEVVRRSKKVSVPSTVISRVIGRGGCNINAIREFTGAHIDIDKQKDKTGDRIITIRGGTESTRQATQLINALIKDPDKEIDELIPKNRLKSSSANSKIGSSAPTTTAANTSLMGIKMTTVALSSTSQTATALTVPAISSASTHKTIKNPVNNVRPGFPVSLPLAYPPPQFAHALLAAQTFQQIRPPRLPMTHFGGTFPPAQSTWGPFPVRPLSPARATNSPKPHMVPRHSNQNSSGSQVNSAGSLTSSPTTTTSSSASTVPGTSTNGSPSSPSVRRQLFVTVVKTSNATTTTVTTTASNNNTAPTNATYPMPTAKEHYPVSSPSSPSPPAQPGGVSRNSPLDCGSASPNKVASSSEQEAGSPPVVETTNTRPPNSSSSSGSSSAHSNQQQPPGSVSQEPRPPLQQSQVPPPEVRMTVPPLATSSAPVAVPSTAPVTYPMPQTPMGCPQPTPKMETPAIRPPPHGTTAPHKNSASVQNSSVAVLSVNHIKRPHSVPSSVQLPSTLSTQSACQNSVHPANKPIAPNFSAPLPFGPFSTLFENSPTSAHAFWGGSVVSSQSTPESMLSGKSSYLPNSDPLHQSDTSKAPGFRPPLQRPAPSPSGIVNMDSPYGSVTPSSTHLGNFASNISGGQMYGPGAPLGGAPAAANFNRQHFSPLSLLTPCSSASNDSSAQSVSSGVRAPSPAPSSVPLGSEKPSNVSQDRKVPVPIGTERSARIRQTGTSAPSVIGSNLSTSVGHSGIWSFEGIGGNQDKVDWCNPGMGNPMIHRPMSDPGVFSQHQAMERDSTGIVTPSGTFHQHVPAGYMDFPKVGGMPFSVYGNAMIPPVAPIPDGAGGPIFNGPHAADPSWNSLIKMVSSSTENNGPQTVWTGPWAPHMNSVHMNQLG
UniProt Q96CW1: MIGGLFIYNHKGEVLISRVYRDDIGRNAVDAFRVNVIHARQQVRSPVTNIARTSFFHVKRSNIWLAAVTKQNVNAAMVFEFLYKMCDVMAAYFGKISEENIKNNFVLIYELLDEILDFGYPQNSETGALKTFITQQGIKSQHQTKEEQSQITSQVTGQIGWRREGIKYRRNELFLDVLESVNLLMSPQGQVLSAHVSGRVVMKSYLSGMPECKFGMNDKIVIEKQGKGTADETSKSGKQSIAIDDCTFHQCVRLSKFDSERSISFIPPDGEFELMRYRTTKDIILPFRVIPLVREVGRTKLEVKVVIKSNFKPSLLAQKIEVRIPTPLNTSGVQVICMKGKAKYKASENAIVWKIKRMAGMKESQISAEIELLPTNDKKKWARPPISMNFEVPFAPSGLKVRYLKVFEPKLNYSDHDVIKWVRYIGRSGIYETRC

Compound: CC1Cc2ccccc2N1C(=O)C1CCCN(C1)C(=O)CCl (mixture of isomers) [TRIM25 ligand 11 (diastereomer mixture)]
Assay: probe-labelled cysteine peptide fold change vs DMSO (competition) (log2 fold change); higher = less target engagement (more negative = stronger competition)
Details: THP-1, incubation time: 4 h
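Also: competitive chemoproteomic profiling in live THP-1 cells with an iodoacetamide desthiobiotin (IA-DTB) probe, comparing probe-labelled peptide intensities in compound-treated cells against DMSO-treated controls.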

Target | probe-labelled cysteine peptide fold change (10 µM) | probe-labelled cysteine peptide fold change (50 µM)
AP1B1_Q10567_930_CRAPEVSQHVYQAYETILK (UniProt Q10567) | 0.0204 | -0.125
ANXA4_P09525_198_FLTVLCSR (UniProt P09525) | -0.0707 | 0.0642
AP2B1_P63010_565_PLISEETDLIEPTLLDELICHIGSLASVYHKPPNAFVEGSHGIHR (UniProt P63010) | -0.139 | -0.115
APAF1_O14727_749_NTMFGHTNSVNHCR (UniProt O14727) | 0.177 | -0.185
APEX1_P27695_208_KPLVLCGDLNVAHEEIDLRNPK (UniProt P27695) | -0.279 | -0.0808
ANKLE2_Q86XL3_367_ENQASICQLTLDVLENPDFMR (UniProt Q86XL3) | 0.0789 | 0.189
AP3S1_Q92572_47_RDENVCNFLEGGLLIGGSDNK (UniProt Q92572) | 0.111 | 0.0336
API5_Q9BZZ5_71_HFPELADSAINAQLDLCEDEDVSIRR (UniProt Q9BZZ5) | 0.0516 | 0.106
ANKRD52_Q8NB46_733_GAVTGCEDCLAALLDHDAFVLCR (UniProt Q8NB46) | 0.0415 | 0.0111
ANKRD50_Q9ULJ7_744_GAEVDHCDK (UniProt Q9ULJ7) | 0.159 | 0.0869
AP3D1_O14617_60_ANAVCK (UniProt O14617) | 0.135 | 0.269
AP2A2_O94973_330_ACNQLGQFLQHR (UniProt O94973) | -0.0574 | 0.0315
APAF1_O14727_8_NCLLQHR (UniProt O14727) | -0.0505 | -0.0514
AP3D1_O14617_479_NGICEVLYAAAWICGEFSEHLQEPHHTLEAMLRPR (UniProt O14617) | 0.196 | 0.0418
ANKRD52_Q8NB46_733+749_GAVTGCEDCLAALLDHDAFVLCR (UniProt Q8NB46) | 0.0114 | -0.356
APEH_P13798_594_DVQFAVEQVLQEEHFDASHVALMGGSHGGFISCHLIGQYPETYR (UniProt P13798) | 0.26 | 0.34
ANO6_Q4KMQ2_105_QAYESNLICHGLQLEATR (UniProt Q4KMQ2) | -0.0838 | -0.0162
AP3M2_P53677_236_LLDDVSFHPCVR (UniProt P53677) | 0.0141 | -0.162
ANKRD17_O75179_242_SLAEACSEGDVNAVR (UniProt O75179) | 0.102 | 0.161

Target | probe-labelled cysteine peptide fold change (10 µM) | probe-labelled cysteine peptide fold change (50 µM)
ANKRD11_Q6UB99_1339_ESACLPEK (UniProt Q6UB99) | 0.0722 | -0.048
APEX1_P27695_296_LDYFLLSHSLLPALCDSK (UniProt P27695) | 0.0977 | 0.115
ANKRD17_O75179_442_TDEMHTALMEACMDGHVEVAR (UniProt O75179) | -0.00146 | 0.00349
AP2B1_P63010_144_KTAAVCVAK (UniProt P63010) | -0.517 | -0.385
AP2M1_Q96CW1_246_QSIAIDDCTFHQCVR (UniProt Q96CW1) | -0.00235 | -0.0137
ANKFY1_Q9P2R3_499_WGETPLHTACR (UniProt Q9P2R3) | 0.189 | 0.18
APLP2_Q06481_160_MEVCENHQHWHTVVK (UniProt Q06481) | 0.00247 | -0.0723
ANXA7_P20073_327_LLVSMCQGNRDENQSINHQMAQEDAQR (UniProt P20073) | -0.148 | -0.299
APEH_P13798_149+152_HGPVYEDDCFGCLSWSHSETHLLYVAEK (UniProt P13798) | -0.00181 | -0.172
ANKHD1_Q8IWZ3_1308_FCELLIHR (UniProt Q8IWZ3) | -0.00633 | 0.106
ANKRD28_O15084_898_NTALHLACSK (UniProt O15084) | 0.0584 | 0.284
APEX1_P27695_65_ICSWNVDGLR (UniProt P27695) | -0.0619 | 0.0189
ANO6_Q4KMQ2_250_AAFPLHDCK (UniProt Q4KMQ2) | 0.0116 | 0.0223
ANKRD16_Q6P6B7_43_EELQAAGGCPGPAGDTLLHCAAR (UniProt Q6P6B7) | 0.132 | -0.0106
ANKHD1_Q8IWZ3_2518_VIQNSTECTDAQQIWPGTWAPHIGNMHLK (UniProt Q8IWZ3) | 0.158 | -0.0333
ANKRD27_Q96NW4_795_CLLDSNAKPNKK (UniProt Q96NW4) | -0.201 | -0.0885
AP2M1_Q96CW1_337_IPTPLNTSGVQVICMK (UniProt Q96CW1) | 0.0113 | 0.0203
APBB1IP_Q7Z5R6_401_YLCCDDTR (UniProt Q7Z5R6) | -0.0505 | -0.0813

As a working copy, part of the list above:
Target | probe-labelled cysteine peptide fold change (10 µM) | probe-labelled cysteine peptide fold change (50 µM)
APEH_P13798_149+152_HGPVYEDDCFGCLSWSHSETHLLYVAEK (UniProt P13798) | -0.00181 | -0.172
ANKHD1_Q8IWZ3_1308_FCELLIHR (UniProt Q8IWZ3) | -0.00633 | 0.106
